The nature of the data set: general procedure: Fmoc solid-phase peptide synthesis; Fmoc-Gly-Sasrin; HOBT, TBTU, DIEA. The settings on record: whole synthesis, scale 0.69 mmol, TFA (protected cyclopeptides); hydrochlorides (final conjugates).

As to c(Arg(Pmc)-Gly-Asp(OtBu)-D-Phe-Aad), the isolated mass is given as 187 mg.

Values taken from patent US7589099B2 (priority 2004, dated 2009).
